Test results from patent US12545673B2, “Imidazopyridine derivative and pharmaceutical composition comprising same as active ingredient” (TSD LIFE SCIENCES CO., LTD., priority 2019, dated 2026).
At least one structure is not confirmed: it was looked up by name or label, or the drawing left a doubt.

Test system: α-SMA
Assay: Fibrosis inhibition evaluation 2, palmitic acid-induced HepG2, real-time PCR, α-SMA; also: test concentration or dose not given here
Settings: palmitic acid-induced HepG2 (Table 8)

Compound: CCS(=O)(=O)N1CC[C@H](Nc2c(Br)cnc3nc(-c4cc(C)n(-c5cccc(OCCN6CCOCC6)c5)c4C)[nH]c23)C1 [Example 3, (S)-6-bromo-2-(2,5-dimethyl-1-(3-(2-morpholinoethoxy)phenyl)-1H-pyrrol-3-yl)-N-(1-(ethylsulfonyl)pyrrolidine-3-yl)-1H-imidazo[4,5-b]pyridine-7-amine]
- Relative degree of expression inhibition (%) α-SMA: ambiguous
